The results in this text go back to paper PMC13419597, “An Acetylation-Primed SUMOylation Switch Controls RORβ Stability through a p300-SIRT1 Regulatory Axis” (Research Square, 2024).

The chains behind the UniProt entries cited, without tags or fusion partners.
UniProt Q92793: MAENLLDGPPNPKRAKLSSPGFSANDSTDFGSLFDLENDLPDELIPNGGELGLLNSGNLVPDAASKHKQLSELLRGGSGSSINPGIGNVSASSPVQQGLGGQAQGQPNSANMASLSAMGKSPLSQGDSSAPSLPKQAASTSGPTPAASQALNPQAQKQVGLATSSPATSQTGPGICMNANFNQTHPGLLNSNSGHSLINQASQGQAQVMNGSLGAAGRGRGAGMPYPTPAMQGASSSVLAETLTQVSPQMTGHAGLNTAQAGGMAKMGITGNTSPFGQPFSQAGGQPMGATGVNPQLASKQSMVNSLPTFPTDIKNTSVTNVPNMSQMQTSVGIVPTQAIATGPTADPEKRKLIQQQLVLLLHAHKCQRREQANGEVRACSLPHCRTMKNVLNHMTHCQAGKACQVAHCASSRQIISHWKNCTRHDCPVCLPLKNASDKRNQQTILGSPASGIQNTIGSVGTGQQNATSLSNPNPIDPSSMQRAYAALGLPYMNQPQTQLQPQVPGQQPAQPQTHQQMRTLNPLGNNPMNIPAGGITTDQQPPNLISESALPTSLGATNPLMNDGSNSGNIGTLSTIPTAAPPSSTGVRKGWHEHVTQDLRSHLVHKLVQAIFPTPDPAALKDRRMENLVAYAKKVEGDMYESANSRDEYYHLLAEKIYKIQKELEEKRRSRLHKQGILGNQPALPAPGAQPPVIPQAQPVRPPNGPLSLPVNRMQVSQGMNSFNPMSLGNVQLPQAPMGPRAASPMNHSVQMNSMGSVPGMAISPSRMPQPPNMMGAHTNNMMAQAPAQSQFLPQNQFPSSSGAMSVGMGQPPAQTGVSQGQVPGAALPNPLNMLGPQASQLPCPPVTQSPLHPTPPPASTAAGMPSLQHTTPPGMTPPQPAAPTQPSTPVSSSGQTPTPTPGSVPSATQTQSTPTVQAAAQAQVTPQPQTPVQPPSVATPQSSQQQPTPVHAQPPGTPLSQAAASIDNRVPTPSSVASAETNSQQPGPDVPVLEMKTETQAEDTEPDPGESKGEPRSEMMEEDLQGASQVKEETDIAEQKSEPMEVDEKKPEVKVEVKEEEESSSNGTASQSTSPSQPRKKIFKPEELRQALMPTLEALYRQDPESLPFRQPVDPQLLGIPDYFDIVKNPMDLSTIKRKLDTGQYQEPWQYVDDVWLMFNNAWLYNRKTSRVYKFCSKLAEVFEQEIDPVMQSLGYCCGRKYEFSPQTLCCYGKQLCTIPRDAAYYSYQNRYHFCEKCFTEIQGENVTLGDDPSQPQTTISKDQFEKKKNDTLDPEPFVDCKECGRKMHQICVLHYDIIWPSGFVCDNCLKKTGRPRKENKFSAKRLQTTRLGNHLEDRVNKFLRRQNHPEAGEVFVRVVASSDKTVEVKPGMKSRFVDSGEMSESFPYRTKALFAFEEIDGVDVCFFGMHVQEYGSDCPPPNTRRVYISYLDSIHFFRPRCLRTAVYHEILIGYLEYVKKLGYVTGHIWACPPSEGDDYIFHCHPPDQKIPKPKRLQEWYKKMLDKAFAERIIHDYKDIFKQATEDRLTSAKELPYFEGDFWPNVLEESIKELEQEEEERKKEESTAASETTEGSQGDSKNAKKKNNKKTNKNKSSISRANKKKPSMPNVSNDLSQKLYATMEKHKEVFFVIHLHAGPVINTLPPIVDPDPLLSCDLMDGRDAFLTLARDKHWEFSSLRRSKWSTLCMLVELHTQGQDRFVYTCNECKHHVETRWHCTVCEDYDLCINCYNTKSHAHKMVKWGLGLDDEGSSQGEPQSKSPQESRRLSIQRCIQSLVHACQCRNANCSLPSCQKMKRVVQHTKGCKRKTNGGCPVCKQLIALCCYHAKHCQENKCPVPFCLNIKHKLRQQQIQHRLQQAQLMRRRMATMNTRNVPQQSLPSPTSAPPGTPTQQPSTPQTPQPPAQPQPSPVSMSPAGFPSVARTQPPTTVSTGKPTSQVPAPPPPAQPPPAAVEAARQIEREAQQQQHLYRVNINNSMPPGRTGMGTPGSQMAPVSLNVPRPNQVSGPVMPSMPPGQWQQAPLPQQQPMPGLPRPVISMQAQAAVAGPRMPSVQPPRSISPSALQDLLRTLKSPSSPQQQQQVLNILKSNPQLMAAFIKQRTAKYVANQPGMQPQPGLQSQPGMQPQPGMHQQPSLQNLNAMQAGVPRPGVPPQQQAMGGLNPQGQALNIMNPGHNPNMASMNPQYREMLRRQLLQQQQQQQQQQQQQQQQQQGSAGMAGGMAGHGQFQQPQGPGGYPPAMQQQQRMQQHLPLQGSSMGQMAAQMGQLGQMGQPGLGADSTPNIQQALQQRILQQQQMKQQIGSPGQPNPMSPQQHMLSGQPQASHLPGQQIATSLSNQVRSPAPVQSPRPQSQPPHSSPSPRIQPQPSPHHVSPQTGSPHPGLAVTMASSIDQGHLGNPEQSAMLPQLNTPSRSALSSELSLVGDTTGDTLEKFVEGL
UniProt Q09472: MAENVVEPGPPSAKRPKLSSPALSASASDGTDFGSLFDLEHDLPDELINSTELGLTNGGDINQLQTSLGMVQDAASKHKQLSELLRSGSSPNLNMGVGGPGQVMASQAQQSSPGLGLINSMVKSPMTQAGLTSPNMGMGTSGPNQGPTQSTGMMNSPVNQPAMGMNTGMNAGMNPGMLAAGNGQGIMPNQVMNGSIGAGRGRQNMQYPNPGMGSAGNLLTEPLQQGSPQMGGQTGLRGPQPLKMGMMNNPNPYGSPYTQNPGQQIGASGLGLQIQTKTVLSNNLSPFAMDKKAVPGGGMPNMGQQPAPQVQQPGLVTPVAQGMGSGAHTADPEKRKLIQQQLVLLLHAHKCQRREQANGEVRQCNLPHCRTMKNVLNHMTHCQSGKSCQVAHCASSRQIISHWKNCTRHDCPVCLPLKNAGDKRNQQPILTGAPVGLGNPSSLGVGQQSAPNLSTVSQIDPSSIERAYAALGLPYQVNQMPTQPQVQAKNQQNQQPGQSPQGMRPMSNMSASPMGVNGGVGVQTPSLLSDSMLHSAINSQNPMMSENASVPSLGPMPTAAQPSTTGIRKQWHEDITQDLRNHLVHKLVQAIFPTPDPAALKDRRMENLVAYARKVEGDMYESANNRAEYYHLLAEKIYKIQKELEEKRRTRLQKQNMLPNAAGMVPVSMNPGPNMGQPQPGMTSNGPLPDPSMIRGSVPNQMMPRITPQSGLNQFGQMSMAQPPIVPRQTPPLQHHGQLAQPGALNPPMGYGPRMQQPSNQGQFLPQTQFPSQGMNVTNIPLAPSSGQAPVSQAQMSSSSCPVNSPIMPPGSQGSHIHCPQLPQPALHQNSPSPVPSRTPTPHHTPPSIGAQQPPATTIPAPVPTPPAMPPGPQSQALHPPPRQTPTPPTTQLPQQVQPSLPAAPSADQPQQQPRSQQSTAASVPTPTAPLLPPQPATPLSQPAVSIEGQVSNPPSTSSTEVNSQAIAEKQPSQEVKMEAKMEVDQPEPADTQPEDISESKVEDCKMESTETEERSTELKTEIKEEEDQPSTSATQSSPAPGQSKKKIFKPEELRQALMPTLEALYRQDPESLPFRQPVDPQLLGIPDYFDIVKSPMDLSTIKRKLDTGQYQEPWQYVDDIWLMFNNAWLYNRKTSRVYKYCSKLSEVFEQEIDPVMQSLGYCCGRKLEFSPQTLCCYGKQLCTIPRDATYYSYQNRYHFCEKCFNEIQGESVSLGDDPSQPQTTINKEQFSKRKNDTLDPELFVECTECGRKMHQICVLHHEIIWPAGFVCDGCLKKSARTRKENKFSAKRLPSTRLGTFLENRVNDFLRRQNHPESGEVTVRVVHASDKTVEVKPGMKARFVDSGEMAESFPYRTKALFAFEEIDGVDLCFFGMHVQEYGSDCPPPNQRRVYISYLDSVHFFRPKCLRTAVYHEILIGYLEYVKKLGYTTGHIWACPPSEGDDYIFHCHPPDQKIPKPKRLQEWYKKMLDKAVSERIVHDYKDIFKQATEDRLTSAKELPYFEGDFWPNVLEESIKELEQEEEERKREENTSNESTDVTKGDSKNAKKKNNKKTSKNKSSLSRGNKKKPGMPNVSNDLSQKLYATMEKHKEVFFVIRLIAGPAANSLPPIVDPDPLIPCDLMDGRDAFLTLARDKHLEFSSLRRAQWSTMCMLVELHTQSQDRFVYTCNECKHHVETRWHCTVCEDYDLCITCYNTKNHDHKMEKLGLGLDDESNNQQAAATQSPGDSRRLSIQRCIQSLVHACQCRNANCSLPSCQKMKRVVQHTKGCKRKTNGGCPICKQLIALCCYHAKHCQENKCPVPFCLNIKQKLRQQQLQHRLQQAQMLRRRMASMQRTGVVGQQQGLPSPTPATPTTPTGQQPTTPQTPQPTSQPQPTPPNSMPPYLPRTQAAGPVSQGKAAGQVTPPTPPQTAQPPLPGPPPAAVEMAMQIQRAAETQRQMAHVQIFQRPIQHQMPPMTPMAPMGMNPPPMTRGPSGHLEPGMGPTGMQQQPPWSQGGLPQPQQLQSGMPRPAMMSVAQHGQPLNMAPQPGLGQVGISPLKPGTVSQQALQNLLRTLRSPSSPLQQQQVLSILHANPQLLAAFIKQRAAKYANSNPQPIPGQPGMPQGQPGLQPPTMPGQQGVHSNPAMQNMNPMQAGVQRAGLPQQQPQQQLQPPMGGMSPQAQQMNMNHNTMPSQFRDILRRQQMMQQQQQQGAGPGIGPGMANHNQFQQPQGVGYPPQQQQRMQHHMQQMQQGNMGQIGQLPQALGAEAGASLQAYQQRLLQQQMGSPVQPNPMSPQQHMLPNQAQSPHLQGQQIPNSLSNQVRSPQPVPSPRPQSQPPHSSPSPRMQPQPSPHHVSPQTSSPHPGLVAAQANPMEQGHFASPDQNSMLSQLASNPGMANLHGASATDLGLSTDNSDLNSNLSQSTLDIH

Results are given in words; binding and its absence hold for the method and conditions named. In cells and extracts the contact can be indirect. Here binding means that the protein was enriched with, or labelled near, the bait; the list need not be complete.

Test [1] concerns the target T1, endogenous RORβ of Y79 human retinoblastoma cells (human (endogenous in Y79)) (UniProt Q92753).
T1 sequence: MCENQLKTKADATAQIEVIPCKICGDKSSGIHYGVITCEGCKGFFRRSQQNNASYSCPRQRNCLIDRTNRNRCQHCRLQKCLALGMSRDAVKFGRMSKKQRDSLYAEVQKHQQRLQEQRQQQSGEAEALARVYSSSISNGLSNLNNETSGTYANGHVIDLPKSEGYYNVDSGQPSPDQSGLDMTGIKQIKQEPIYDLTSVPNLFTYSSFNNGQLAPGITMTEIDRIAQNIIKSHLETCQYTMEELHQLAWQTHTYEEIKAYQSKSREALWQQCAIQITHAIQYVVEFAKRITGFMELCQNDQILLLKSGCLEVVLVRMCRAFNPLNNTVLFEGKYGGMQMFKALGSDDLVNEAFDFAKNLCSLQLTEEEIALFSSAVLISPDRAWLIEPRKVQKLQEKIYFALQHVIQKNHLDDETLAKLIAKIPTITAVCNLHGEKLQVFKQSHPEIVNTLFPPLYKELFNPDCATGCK
The test is described as follows: affinity purification with mass spectrometry; standard IP-MS without crosslinking, endogenous RORβ immunoprecipitated from Y79 human retinoblastoma cells, n=3.

A further test has as its target T2, His-HA-RORβ (isoform 1) (human, UniProt Q92753-1 1-459).
T2 construct: Retinoic acid receptor-related orphan receptor beta (RORβ), human, isoform 1 (RORβ1); the printed residue numbers (K11 to K459 at the C-terminus of the LBD) fit the 459-residue form; Same plasmid used in TC28a2 (RIME) and HEK293T (co-IP, IP-MS); also called HA-tagged RORβ; RORβ WT; source: TC28a2 or HEK293T, transiently transfected (pCMV6), in lysate
T2 sequence (looked up): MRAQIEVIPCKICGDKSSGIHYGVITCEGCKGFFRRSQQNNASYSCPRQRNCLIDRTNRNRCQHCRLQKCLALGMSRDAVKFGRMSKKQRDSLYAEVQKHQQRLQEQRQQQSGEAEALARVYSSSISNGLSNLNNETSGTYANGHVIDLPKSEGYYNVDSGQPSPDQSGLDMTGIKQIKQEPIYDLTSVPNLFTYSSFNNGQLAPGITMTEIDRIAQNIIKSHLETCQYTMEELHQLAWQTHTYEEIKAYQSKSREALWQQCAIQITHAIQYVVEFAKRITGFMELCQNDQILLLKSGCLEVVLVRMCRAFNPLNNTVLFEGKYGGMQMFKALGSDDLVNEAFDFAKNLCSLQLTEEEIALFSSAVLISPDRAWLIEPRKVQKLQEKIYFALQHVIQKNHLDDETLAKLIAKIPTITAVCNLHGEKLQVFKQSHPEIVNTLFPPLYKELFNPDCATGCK
The test is described as follows: affinity purification with mass spectrometry; RIME: HA-RORβ transfected in TC28a2 chondrocytes, 1% formaldehyde crosslinking in cells, nuclear lysate, anti-HA magnetic beads, HA-peptide-blocked control; also with SIRT1 activator SRT2104 against DMSO.

For the molecule “CREBBP, endogenous in Y79 human retinoblastoma cells (from UniProt Q92793 1-2442) (enzyme)”, the binding entry in test [1] is given as “binds”.
On to “lysine acetyltransferase p300 (EP300), endogenous in TC28a2 (from UniProt Q09472 1-2414) (enzyme)”, for which the binding entry in the test with His-HA-RORβ (isoform 1) is listed as “binds”.

B1: PIAS1, endogenous in TC28a2 (enzyme, human (endogenous in TC28a2), UniProt O75925 1-651, looked up)
chain: MADSAELKQMVMSLRVSELQVLLGYAGRNKHGRKHELLTKALHLLKAGCSPAVQMKIKELYRRRFPQKIMTPADLSIPNVHSSPMPATLSPSTIPQLTYDGHPASSPLLPVSLLGPKHELELPHLTSALHPVHPDIKLQKLPFYDLLDELIKPTSLASDNSQRFRETCFAFALTPQQVQQISSSMDISGTKCDFTVQVQLRFCLSETSCPQEDHFPPNLCVKVNTKPCSLPGYLPPTKNGVEPKRPSRPINITSLVRLSTTVPNTIVVSWTAEIGRNYSMAVYLVKQLSSTVLLQRLRAKGIRNPDHSRALIKEKLTADPDSEIATTSLRVSLLCPLGKMRLTIPCRALTCSHLQCFDATLYIQMNEKKPTWVCPVCDKKAPYEHLIIDGLFMEILKYCTDCDEIQFKEDGTWAPMRSKKEVQEVSASYNGVDGCLSSTLEHQVASHHQSSNKNKKVEVIDLTIDSSSDEEEEEPSAKRTCPSLSPTSPLNNKGILSLPHQASPVSRTPSLPAVDTSYINTSLIQDYRHPFHMTPMPYDLQGLDFFPFLSGDNQHYNTSLLAAAAAAVSDDQDLLHSSRFFPYTSSQMFLDQLSAGGSTSLPTTNGSSSGSNSSLVSSNSLRESHSHTVTNRSSTDTASIFGIIPDIISLD
notes: E3 SUMO-protein ligase PIAS1, endogenous in TC28a2 human chondrocytes; source: endogenous, TC28a2 nuclear lysate
Take B1: the binding entry in the test with His-HA-RORβ (isoform 1) is “binds”.
